Measurements taken from the supplement of paper PMC10849652.
The list shows a part of the results.

By UniProt entry, the sequences of proteins in these tests, tags left out. Where a name states a change or a piece, a line headed by the entry shows the natural chain unless it says otherwise.
UniProt O60749: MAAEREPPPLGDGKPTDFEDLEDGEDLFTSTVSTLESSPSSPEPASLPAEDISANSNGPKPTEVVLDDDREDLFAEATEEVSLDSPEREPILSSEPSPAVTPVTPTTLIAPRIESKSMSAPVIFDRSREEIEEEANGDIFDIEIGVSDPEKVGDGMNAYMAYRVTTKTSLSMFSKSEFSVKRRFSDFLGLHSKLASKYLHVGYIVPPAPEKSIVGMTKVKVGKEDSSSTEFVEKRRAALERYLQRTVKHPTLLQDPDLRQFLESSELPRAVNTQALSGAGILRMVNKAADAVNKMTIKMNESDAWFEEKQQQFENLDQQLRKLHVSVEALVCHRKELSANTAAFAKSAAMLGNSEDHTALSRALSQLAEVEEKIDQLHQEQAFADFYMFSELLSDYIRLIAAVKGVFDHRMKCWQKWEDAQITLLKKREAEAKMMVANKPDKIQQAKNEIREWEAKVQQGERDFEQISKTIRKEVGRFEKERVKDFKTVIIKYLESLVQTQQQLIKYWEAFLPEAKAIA
UniProt Q8TEV9: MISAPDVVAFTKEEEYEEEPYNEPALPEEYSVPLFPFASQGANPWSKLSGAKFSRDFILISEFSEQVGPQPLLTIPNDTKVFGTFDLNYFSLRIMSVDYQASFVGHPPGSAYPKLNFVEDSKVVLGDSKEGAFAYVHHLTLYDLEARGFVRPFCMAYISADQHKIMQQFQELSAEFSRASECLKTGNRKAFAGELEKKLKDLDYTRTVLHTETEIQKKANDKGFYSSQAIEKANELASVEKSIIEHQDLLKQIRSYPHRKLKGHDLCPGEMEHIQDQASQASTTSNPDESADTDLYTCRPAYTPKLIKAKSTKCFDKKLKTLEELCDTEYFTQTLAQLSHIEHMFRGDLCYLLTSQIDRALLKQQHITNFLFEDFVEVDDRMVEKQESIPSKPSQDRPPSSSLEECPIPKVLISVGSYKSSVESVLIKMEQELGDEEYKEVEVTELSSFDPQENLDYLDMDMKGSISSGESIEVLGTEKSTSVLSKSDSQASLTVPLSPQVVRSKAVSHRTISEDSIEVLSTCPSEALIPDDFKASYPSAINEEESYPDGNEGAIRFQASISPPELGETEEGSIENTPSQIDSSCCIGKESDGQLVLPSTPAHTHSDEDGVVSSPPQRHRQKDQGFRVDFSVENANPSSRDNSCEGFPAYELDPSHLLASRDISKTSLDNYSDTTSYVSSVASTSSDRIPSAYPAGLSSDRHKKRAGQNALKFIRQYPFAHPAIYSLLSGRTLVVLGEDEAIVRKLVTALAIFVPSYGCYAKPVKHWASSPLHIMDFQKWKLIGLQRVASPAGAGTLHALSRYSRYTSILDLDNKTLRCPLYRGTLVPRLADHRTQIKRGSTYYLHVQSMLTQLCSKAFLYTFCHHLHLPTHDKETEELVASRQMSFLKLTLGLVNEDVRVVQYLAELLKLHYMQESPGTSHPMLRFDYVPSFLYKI
UniProt Q9H7B4: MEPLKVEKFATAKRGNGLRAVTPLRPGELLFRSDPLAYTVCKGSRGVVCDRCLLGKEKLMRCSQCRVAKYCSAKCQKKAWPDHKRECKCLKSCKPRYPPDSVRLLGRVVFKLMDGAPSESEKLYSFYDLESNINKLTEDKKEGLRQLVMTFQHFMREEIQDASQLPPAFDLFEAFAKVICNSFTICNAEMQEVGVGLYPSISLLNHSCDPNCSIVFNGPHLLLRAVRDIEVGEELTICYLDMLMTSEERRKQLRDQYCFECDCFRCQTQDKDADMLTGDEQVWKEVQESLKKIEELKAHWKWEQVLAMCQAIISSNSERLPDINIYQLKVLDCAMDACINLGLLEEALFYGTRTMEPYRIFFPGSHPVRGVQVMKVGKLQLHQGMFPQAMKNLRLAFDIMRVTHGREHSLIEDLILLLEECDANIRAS
UniProt O60641: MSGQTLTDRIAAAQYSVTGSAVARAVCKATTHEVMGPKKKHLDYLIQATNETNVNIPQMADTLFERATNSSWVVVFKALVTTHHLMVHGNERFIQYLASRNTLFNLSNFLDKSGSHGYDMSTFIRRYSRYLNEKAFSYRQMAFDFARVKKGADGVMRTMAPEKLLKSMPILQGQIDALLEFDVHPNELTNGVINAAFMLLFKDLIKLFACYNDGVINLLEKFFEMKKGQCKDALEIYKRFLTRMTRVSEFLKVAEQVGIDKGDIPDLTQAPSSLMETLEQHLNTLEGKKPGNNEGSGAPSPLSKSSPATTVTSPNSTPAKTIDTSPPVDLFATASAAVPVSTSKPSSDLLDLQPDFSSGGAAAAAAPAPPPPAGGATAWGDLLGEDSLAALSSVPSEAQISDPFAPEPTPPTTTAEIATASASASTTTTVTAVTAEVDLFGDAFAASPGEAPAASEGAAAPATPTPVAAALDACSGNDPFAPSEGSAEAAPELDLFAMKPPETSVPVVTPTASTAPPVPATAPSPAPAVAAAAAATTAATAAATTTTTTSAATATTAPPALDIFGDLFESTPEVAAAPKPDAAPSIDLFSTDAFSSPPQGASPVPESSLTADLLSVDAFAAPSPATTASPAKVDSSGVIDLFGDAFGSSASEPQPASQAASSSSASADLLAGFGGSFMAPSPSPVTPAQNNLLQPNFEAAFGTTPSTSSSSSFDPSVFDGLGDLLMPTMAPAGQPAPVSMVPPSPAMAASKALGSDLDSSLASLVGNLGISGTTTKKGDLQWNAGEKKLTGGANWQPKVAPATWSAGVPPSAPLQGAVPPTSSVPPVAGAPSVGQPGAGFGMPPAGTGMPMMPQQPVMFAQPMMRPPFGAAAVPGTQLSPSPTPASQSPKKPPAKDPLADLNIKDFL
UniProt Q8WVI0: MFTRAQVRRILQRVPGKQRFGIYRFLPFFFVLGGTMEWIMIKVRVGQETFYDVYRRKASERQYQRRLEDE
UniProt Q6J4K2: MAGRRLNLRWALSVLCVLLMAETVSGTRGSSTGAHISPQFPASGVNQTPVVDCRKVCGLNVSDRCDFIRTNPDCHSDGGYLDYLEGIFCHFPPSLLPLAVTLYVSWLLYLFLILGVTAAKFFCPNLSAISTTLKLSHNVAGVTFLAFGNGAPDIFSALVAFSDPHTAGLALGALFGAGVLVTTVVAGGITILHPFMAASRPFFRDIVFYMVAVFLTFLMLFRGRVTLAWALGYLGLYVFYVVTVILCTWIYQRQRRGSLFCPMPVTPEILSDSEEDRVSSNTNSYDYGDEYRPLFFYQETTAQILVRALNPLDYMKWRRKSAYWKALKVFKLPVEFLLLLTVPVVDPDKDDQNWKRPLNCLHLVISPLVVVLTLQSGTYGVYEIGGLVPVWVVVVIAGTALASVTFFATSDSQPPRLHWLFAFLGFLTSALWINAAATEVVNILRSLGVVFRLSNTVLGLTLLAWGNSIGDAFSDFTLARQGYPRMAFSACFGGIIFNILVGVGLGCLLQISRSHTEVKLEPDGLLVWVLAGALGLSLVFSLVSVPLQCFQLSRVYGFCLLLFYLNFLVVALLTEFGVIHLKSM
UniProt P84022, whole entry, looked up: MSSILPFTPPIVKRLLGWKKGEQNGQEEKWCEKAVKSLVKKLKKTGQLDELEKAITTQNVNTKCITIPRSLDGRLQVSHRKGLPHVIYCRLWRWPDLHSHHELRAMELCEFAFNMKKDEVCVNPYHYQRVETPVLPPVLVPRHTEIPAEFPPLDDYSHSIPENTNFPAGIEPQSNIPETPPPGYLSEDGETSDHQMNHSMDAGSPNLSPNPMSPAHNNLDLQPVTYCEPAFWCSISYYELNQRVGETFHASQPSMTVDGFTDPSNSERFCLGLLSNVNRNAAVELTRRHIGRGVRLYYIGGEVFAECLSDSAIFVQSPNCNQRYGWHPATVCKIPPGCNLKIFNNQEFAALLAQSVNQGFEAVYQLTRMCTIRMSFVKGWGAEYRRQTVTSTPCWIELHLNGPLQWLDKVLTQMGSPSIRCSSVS

Legend:
Assay in all cases: log2 fold change, soluble protein after heating vs DMSO (PISA); higher = thermal stabilisation; K562 cells, 10 uM, 30 min; active = over 0.2 and 3.5 SD of the protein, either way, in both replicates (recomputed)
[1] = compound: CC1=C(C=C(C=C1)NC(=O)C2=CC(=CC=C2)C(C)(C)C#N)NC3=CC4=C(C=C3)N=CN(C4=O)C
Procedure, shortened: (§1)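 For each measurement, 10 μM compound was applied for 30 min to K562 cells at 2×10^6 cells/mL. Aliquots were heated for 3 min across 48°C-58°C, pooled, and extracted in PBS with 0.5% NP-40 at 4°C; the supernatant after 21,000xg for 90 min was soluble protein. This was quantified by TMTpro 16plex LC-MS/MS with channel sums equalised, and thermal stability was reported relative to control samples from duplicates, on a log2 fold-change scale.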

[2] = compound: CC1=CC=C(C=C1)SC2=C3C=C(SC3=CN=C2)C(=O)N
Procedure, shortened: as §1

[3] = compound: CC1=NC(=CC=C1)C2=C(N=C(N2)C(C)(C)C)C3=CC4=NC=CN=C4C=C3
Procedure, shortened: as §1

[4] = compound: CCCCN(Cc1ccc(C(=O)NO)cc1)C(=O)Nc1ccccc1 [Nexturastat A]
Procedure, shortened: as §1

[5] = compound: CCCS(=O)(=O)Nc1ccc(F)c(C(=O)c2c[nH]c3ncc(-c4ccc(Cl)cc4)cc23)c1F [vemurafenib]
Procedure, shortened: as §1

[6] = compound: CCCS(=O)(=O)Nc1ccc(F)c(C(=O)c2c[nH]c3ncc(Cl)cc23)c1F
Procedure, shortened: as §1

[7] = compound: CCN(CCCOc1ccc2c(Nc3cc(CC(=O)Nc4cccc(F)c4)[nH]n3)ncnc2c1)CCOP(=O)(O)O [barasertib]
Procedure, shortened: as §1

[8] = compound: CC[C@@H]1C(=O)N(C)c2cnc(Nc3ccc(C(=O)NC4CCN(C)CC4)cc3OC)nc2N1C1CCCC1
Procedure, shortened: as §1

[9] = compound: CC[C@@H]1C(=O)N(C)c2cnc(Nc3ccc(C(=O)N[C@H]4CC[C@H](N5CCN(CC6CC6)CC5)CC4)cc3OC)nc2N1C(C)C [volasertib]
Procedure, shortened: as §1

[10] = compound: CC[C@H](C)[C@@H](C(=O)N[C@@H]([C@@H](C)O)C(=O)N[C@@H](CC(C)C)C(=O)[C@]1(CO1)C)NC(=O)[C@H]([C@@H](C)CC)N(C)C(=O)C [epoxomicin]
Procedure, shortened: as §1

[11] = compound: CN(C)CC(=O)Nc1ccc2[nH]c(=O)c3ccccc3c2c1
Procedure, shortened: as §1

[12] = compound: CN1C2=C(C3=C1C(=O)N(N=C3)CC4=CC(=CC=C4)N)SC(=C2)S(=O)C
Procedure, shortened: as §1

[13] = compound: CCCc1cc(C)[nH]c(=O)c1CNC(=O)c1cc(-c2ccnc(N3CCN(C)CC3)c2)cc2c1cnn2C(C)C
Procedure, shortened: as §1

[14] = compound: CCN(CC)Cc1ccc2cc(COC(=O)Nc3ccc(C(=O)NO)cc3)ccc2c1 [givinostat]
Procedure, shortened: as §1

[15] = compound: CC[C@H](C)N1C=C(C2=C(C=C(C=C21)C3=CN=C(C=C3)N4CCNCC4)C(=O)NCC5=C(C=C(NC5=O)C)C)C
Procedure, shortened: as §1

[16] = compound: CCn1c(C(=O)N(C2CC2)C2CC2)cc2c3c(ncn3C)c(Nc3cc(C)n(C)n3)nc21
Procedure, shortened: as §1

[17] = compound: CCn1cc(-c2ccnc3[nH]c(-c4cccc(CN(C)C)c4)cc23)c(-c2ccc(NC(=O)N(C)C)cc2)n1
Procedure, shortened: as §1

[18] = compound: CN(CCOC1=CC=C(C=C1)C[C@H]2C(=O)NC(=O)S2)C3=CC=CC=N3 (racemic) [rosiglitazone]
Procedure, shortened: as §1

[19] = compound: CN1CCC(CNc2ccc3ncc(-c4cccc(OC(F)(F)F)c4)n3n2)CC1
Procedure, shortened: as §1

[20] = compound: CC1=C(C=C(C=C1)NC(=O)C2=CC(=CC=C2)N(C)C)NC(=O)C3=CC=C(C=C3)O
Procedure, shortened: as §1

Measured: log2 fold change

SNX2 isoform 2 (UniProt O60749)
inactive: [1] 0 | [2] -0.003 | [3] -0.039 | [4] 0.484 | [5] -0.026 | [6] -0.144 | [7] -0.054 | [8] -0.194 | [9] -0.06 | [10] 0.034 | [11] -0.161 | [12] 0.086

SMCR8 (UniProt Q8TEV9)
inactive: [1] -0.058 | [2] -0.069 | [3] -0.072 | [4] 0.048 | [6] 0.06 | [13] -0.073 | [14] 0.016 | [7] 0.03 | [8] -0.028 | [9] -0.039 | [15] 0.009 | [10] 0.021 | [16] -0.017 | [17] -0.035 | [18] 0.033 | [12] -0.093 | [19] -0.097

SMYD3 (UniProt Q9H7B4)
inactive: [1] 0.194 | [20] 0.053 | [2] 0.033 | [4] 0.067 | [5] 0.253 | [6] 0.203 | [13] 0.199 | [14] -0.016 | [7] 0.141 | [9] -0.382 | [15] 0.156 | [10] 0.155 | [16] 0.053 | [17] 0.025 | [11] -0.085 | [18] 0.015 | [12] 0.07 | [19] 0.055

SNAP91 (UniProt O60641)
inactive: [1] 0.009 | [20] 0.045 | [3] 0.091 | [4] 0.02 | [5] -0.003 | [13] -0.003 | [14] 0.024 | [7] 0.061 | [8] 0.029 | [15] 0.028 | [10] 0.078 | [16] 0.016 | [17] -0.065 | [11] 0.055 | [18] -0.085 | [12] -0.089 | [19] 0.119

SMIM4 (UniProt Q8WVI0)
inactive: [2] -0.09 | [3] 0.088 | [4] -0.041 | [5] 0.046 | [6] 0.122 | [13] -0.051 | [14] -0.019 | [7] -0.064 | [8] 0.024 | [9] -0.261 | [15] 0.029 | [10] -0.125 | [16] 0.024 | [11] 0.018 | [18] 0.015 | [12] -0.053

SLC8B1 (UniProt Q6J4K2)
inactive: [20] 0.038 | [2] -0.28 | [3] -0.022 | [5] -0.075 | [6] -0.021 | [14] 0.069 | [7] -0.167 | [9] 0.156 | [17] 0.091 | [11] -0.005 | [12] 0.086 | [19] -0.509

SMAD3 (UniProt P84022)
inactive: [20] 0.05 | [2] -0.053 | [5] 0.037 | [6] -0.14 | [9] -0.531 | [17] 0.105 | [11] -0.175 | [12] -0.034 | [19] -0.128
